# About 5,500 (1.4%) of roughly 400,000 compounds were called active. This list was built around the results that the source calls inconclusive (neither active nor inactive); the mix of calls is not that of the screen. The call rests on the fitted dose curve; in most records, active means well fitted cell-killing curve with a large enough effect; inconclusive means small, poorly fitted or top-dose-only effect, or effect the other way; inactive means flat fitted curve, though single readings scatter. Potencies of inconclusive entries are doubtful fits and often do not repeat. Some structures have more than one record in an assay (separate samples or runs), and their calls can disagree.
# Experiment: qHTS assay for MDR1-selective chemotherapeutics: Primary screen using the parental adenocarcinoma cell KB-3-1; further: nearly all actives have a fitted effect of over 60% in size
# Conditions: KB-3-1 viability, CellTiter-Glo ATP luminescence, 72 h; activity change, negative = cytotoxic: at 46.1 µM (top of the series)
# Summary of the method: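 Viability of parental KB-3-1 cells, measured by CellTiter-Glo luminescence, followed a 72 h incubation at 37 °C with pinned compounds in phenol-red-free DMEM containing 10% FBS.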
# On the % scale 0 is the no-effect control and ±100 the full control effect; potency means the concentration at half of the fitted maximal effect.
SMILES,Potency,"activity change, negative = cytotoxic"
Cc1nn2c(NCc3ccccn3)c3c(nc2c1-c1ccccc1)CCC3,"inconclusive: 29.1 µM [cytotoxic, single point]",
CCCCN(CC)Cc1ccc(CNC(=O)Nc2ccc(OC)cc2OC)o1,,inactive: 7.37%
O=C(NNC(=S)NC(=O)c1cn(-c2ccccc2)nc1-c1ccccc1)c1ccncc1,active: 8.2 µM,
CCCN(C(=O)CCl)C1=CCCCC1,"inconclusive: 29.1 µM [cytotoxic, single point]",
CCc1nc2ccc(C(=O)NCCC(C)C)cn2c1N(CC)CCOC,,inactive: 0%
CCN(CC)CCCC(C)n1c2nc(=O)[nH]c(=O)c-2nc2cc(Cl)ccc21 (stereo unspecified),active: 6.51 µM,
COc1ccc(C(O)(CCC(C)C)C(CN2CCOCC2)c2ccc(Cl)cc2)cc1 (stereo unspecified),"inconclusive: 29.1 µM [cytotoxic, single point]",
OC(CNCCc1ccc(C(F)(F)F)cc1)COC(c1ccccc1)c1ccccc1 (stereo unspecified),"inconclusive: 32.6 µM [cytotoxic, single point]",
O=C(NCc1nnnn1-c1ccc(F)cc1)C(=O)c1c[nH]c2ccccc12,,inactive: -2.06%
Cc1ccc(CN2CCC(CNc3ncnc4onc(-c5ccc(Cl)cc5)c34)CC2)cc1,,inactive: -3.01%
N#C/C(=C\c1c(Oc2ccc(Cl)cc2)nc2ccccn2c1=O)C(=O)NC1CCS(=O)(=O)C1 (stereo unspecified),"inconclusive: 18.4 µM [cytotoxic, single point]",
COc1ccc(C(=O)NCC(c2ccco2)N2CCc3ccccc32)cc1 (stereo unspecified),active: 5.8 µM,
CCCCn1c(N)c(N(C(=O)CSc2nncn2-c2ccccc2C)C2CCCC2)c(=O)[nH]c1=O,,inactive: -7.49%
O=c1[nH]c2cc3c(cc2cc1CN(CCc1ccccc1)C(=S)NCCCN1CCOCC1)OCCO3,"inconclusive: 29.1 µM [cytotoxic, single point]",
Cc1nnc(NC(=O)c2nc(S(=O)(=O)Cc3ccccc3)ncc2Cl)s1,active: 10.3 µM,
COc1ccccc1-[n+]1c(C)cc(/C=C2\Sc3ccccc3N2C)cc1C,active: 0.291 µM,
CCN(CC)CCNC(=O)c1ccc(NC(=O)c2c(C)nn(-c3ccc(F)cc3)c2Cl)cc1,"inconclusive: 5.17 µM [rising, partial curve, poor fit]",
CCOC(=O)c1ccccc1Nc1cn(C(C)=O)c2ccccc12,active: 5.8 µM,
Cc1cc2nc3ccc(=[N+](C)C)cc-3sc2cc1N,"inconclusive: 29.1 µM [cytotoxic, partial curve, poor fit]",
CC(=O)NC(c1ccc(N(C)C)cc1)c1cc(Cl)c2cccnc2c1O (stereo unspecified),active: 3.26 µM,
O=C(c1cc(COc2cccc(C(F)(F)F)c2)on1)N1CCC(c2ccncc2)CC1,"inconclusive: 10.3 µM [cytotoxic, partial curve, poor fit]",
COC(=O)c1cc(NC(=O)c2cc(-c3ccc(Cl)cc3)oc2C(F)(F)F)ccc1N1CCOCC1,"inconclusive: 16.4 µM [cytotoxic, partial curve]",

# Single values from the list.
# For Potency, Cc1nn2c(NCc3ccccn3)c3c(nc2c1-c1ccccc1)CCC3 has inconclusive: 29.1 µM [cytotoxic, single point]
# For Potency, N#C/C(=C\c1c(Oc2ccc(Cl)cc2)nc2ccccn2c1=O)C(=O)NC1CCS(=O)(=O)C1 (stereo unspecified) has inconclusive: 18.4 µM [cytotoxic, single point]

# (cont.)

SMILES,Potency,"activity change, negative = cytotoxic"
COc1nc(-c2cccs2)cc(-c2ccc(C)cc2)c1C#N,active: 15.8 µM,
N#Cc1c(N)nc2c3c(sc(=N)c2c1N)NC(=O)CC3c1ccccc1 (stereo unspecified),"inconclusive: 29.1 µM [rising, single point]",
COC(=O)[C@@]12CCCCN1[C@H](c1ccc(SC3CCCCC3)cc1)[C@H]1C(=O)N(C)C(=O)[C@H]12,"inconclusive: 29.1 µM [cytotoxic, single point]",
CC1CCN(S(=O)(=O)c2ccc(NC(=S)NC(=O)c3ccc(Cl)cc3)cc2)CC1,,inactive: -5.58%
COc1ccc(N2CCN(C(c3cc4cc(C)ccc4[nH]c3=O)c3nnnn3Cc3ccccc3)CC2)cc1 (stereo unspecified),"inconclusive: 16.4 µM [cytotoxic, partial curve, poor fit]",
CN(C)c1ccc(-c2nn3c(-c4cc(-c5ccccc5)n[nH]4)nnc3s2)cc1,"inconclusive: 29.1 µM [rising, partial curve, poor fit]",
Cc1ccc(C)c(OC(=O)C2CSC3(C)CCC(=O)N23)c1C (stereo unspecified),active: 16.4 µM,
FC(F)(F)c1ccccc1Cc1c(-c2ccc(Cl)cc2)nc2ccc(Br)cn12,"inconclusive: 23.1 µM [cytotoxic, single point]",
CCOC(=O)c1c(C)c(C(=O)NCCc2ccc(OC)cc2)c(C)n1C,,inactive: 4.64%
COc1ccccc1S(=O)(=O)Cc1ccc(C(=O)N2CCN(c3ccc(C)cc3)C(C)C2)o1 (stereo unspecified),"inconclusive: 29.1 µM [cytotoxic, single point]",
Cc1ccc2nc(NC(=S)NC(=O)c3ccc(OC(C)C)cc3)sc2c1,"inconclusive: 23.1 µM [cytotoxic, partial curve, poor fit]",
Cc1nn(C)c(C)c1NC(=O)CCl,active: 11.6 µM,
CCc1ccc(NC(=O)CSc2nnc(-c3ccccc3)n2C)cc1,"inconclusive: 29.1 µM [rising, single point]",
COC(=O)[C@H]1C[C@@H]1[C@H](NC(=O)OCc1ccccc1)c1ccccc1,,inconclusive: 31.9%
Cc1cc(C(=O)N2CC=C(c3ccccc3)CC2)c2ccccc2n1,"inconclusive: 0.58 µM [cytotoxic, full curve, poor fit]",
COc1ccc(C(NC(=O)CC(C)C)c2c(O)ccc3ccccc23)cc1 (stereo unspecified),"inconclusive: 29.1 µM [cytotoxic, single point]",
COc1cccc(CNC(=O)CN(C)S(=O)(=O)c2ccc3c(c2)CC(C)N3C(C)=O)c1 (stereo unspecified),"inconclusive: 0.013 µM [rising, full curve]",
CCOc1ccc(NC(=O)c2nc(SCc3ccccc3F)ncc2Cl)cc1,"inconclusive: 14.6 µM [rising, partial curve]",
CC(NC(=O)c1ccco1)C(=O)Nc1nc(-c2ccccn2)cs1 (stereo unspecified),"inconclusive: 29.1 µM [cytotoxic, single point]",
COC(=O)c1ccccc1-c1ccc(/C=N/NC(=O)c2cc3ccccc3o2)o1,"inconclusive: 23.1 µM [rising, single point]",
CCOc1ccc(CCN2C(=O)C(=O)N([C@@H](CC(C)C)CN3CCC[C@H]3CN3C(=O)C(=O)NC[C@@H]3Cc3ccccc3)C[C@@H]2Cc2ccccc2)cc1,"inconclusive: 29.1 µM [cytotoxic, single point]",
COC(=O)c1c(NC(=O)CN2C(=O)NC3(CCCCC3C)C2=O)sc2c1CCC2 (stereo unspecified),active: 10.3 µM,

# Record cards, from the list above.
# COC(=O)c1ccccc1-c1ccc(/C=N/NC(=O)c2cc3ccccc3o2)o1 as listed: Potency: inconclusive: 23.1 µM [rising, single point]
# CCOC(=O)c1c(C)c(C(=O)NCCc2ccc(OC)cc2)c(C)n1C as listed: activity change, negative = cytotoxic: inactive: 4.64%
# COc1ccc(N2CCN(C(c3cc4cc(C)ccc4[nH]c3=O)c3nnnn3Cc3ccccc3)CC2)cc1 (stereo unspecified) as listed: Potency: inconclusive: 16.4 µM [cytotoxic, partial curve, poor fit]

# Continuation.

SMILES,Potency,"activity change, negative = cytotoxic"
O=C(Nc1cccc(Br)c1)Oc1cccc2cccnc12,"inconclusive: 29.1 µM [cytotoxic, single point]",
CC(=O)c1c(C)[nH]c(C(=O)Nc2nc(-c3ccc(Cl)cc3)cs2)c1C,"inconclusive: 29.1 µM [cytotoxic, single point]",
CC(=O)Nc1cccc(OCCCOc2cccc([N+](=O)[O-])c2)c1,,inactive: 2.59%
CCCOc1ccccc1C(=O)N1CCC(c2nc3ccccc3s2)CC1,"inconclusive: 29.1 µM [cytotoxic, single point]",
COc1ccc(/C=C/C(=O)C2C(=O)C=C(C)OC2=O)cc1O (stereo unspecified),"inconclusive: 29.1 µM [cytotoxic, single point]",
COc1ccccc1/C=C/C=N/n1c(-c2ccncc2)n[nH]c1=S,"inconclusive: 13 µM [cytotoxic, partial curve, poor fit]",
CC(C)CCNC(=O)C(C)N(C(=O)Cn1nnc(-c2ccc(F)cc2)n1)C1CCCC1 (stereo unspecified),"inconclusive: 18.4 µM [cytotoxic, single point]",
CCN(CC)c1ncnc2c1sc1nc(C)cc(C)c12,"inconclusive: 13 µM [cytotoxic, partial curve]",
COc1cccc(Cn2c3ccc(NC(=O)Cc4cc(OC)ccc4OC)cc3c(=O)n2C)c1,"inconclusive: 25.9 µM [cytotoxic, single point]",
CCCCC(CC)Cn1c(O)c(/C=C2\C=NN=C2c2ccccc2)sc1=S (stereo unspecified),"inconclusive: 29.1 µM [cytotoxic, single point]",
CC1c2cc3c(cc2CCN1C(=O)c1cccc(Cl)c1)OCCCO3 (stereo unspecified),"inconclusive: 29.1 µM [cytotoxic, single point]",
COc1cc(C)cc(CN2CCC(Cc3ccccc3)CC2)c1O,"inconclusive: 20.6 µM [cytotoxic, partial curve, poor fit]",
C/C(=N\NC(=S)Nc1c(C)cccc1C)c1ccc(OC(F)F)cc1,"inconclusive: 8.2 µM [cytotoxic, partial curve, poor fit]",
COc1cccc2cc(-c3nc(-c4ccccc4)c(C)s3)c(=O)oc12,"inconclusive: 25.9 µM [rising, partial curve, poor fit]",
COc1cc(OC)cc(C(=O)Nc2cc(-c3cn4cccnc4n3)ccc2C)c1,"inconclusive: 5.17 µM [rising, full curve]",
CN(C)S(=O)(=O)N1CCC(Oc2cccc(C(=O)NCCC3=CCCCC3)c2)CC1,"inconclusive: 18.4 µM [cytotoxic, single point]",
COc1ccc(N(C)C(=O)NCc2noc3ccc(C)cc23)c(OC)c1,"inconclusive: 0.291 µM [rising, full curve]",
COc1ccc(NC(=O)CSc2ncn(-c3ccccc3)n2)cc1Cl,"inconclusive: 18.4 µM [cytotoxic, single point]",
CC(C)(C)C1CCC(CN2C(Nc3ccccc3)=NC[C@@H]2Cc2ccccc2)CC1 (stereo partly specified),"inconclusive: 25.9 µM [cytotoxic, single point]",
NNc1nnc2c3cc(F)ccc3n(CCc3ccccc3)c2n1,active: 23.1 µM,
Cc1cccc(NC(=O)C2CCCN(S(=O)(=O)c3c(C)noc3/C=C/N(C)C)C2)c1C (stereo unspecified),,inactive: 4.67%
COCCN(Cc1cc2cc3c(cc2nc1Cl)OCO3)C(=O)c1ccc(C)cc1,"inconclusive: 20.6 µM [cytotoxic, single point]",
